Data from PubChem BioAssay AID1508600 (Functional Genomics Laboratory (NCATS/FGL), 2020).
In all, about 53,000 sequences went through this assay and about 3,700 (7%) were called active.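 The calls were made as follows: active = gene knockdowns whose robust z-score for IL-1 alpha signal is at least 2 or at most -2, so actives lie on both sides; inactive = the rest.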 This is one part of the list.

Assay: Components of the Cytosolic LPS Sensing Pathway: Gene Identification via Genome-wide siRNA Screen;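 also: robust z of the log signal after scaling to non-targeting control siRNA wells of the plate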
Conditions: RAW264.7 macrophages, IL-1a HTRF, actives lie on both sides, screened at 100 nM (by protocol), cells primed 5 h with Pam3CSK4 first
Method in brief: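 RAW264.7; siRNA 100 nM final, RNAiMAX, 48h 37 degrees C; Pam3CSK4 5 h; LipidA + TransIT-TKO 24 h; IL-1a HTRF; CellTiter-Glo viability; robust z vs negative-control median.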

Sequence	z-score
GGGUACCUGUGGUUUUUGUTT against Hdhd5	inactive: -0.481
GGAAGAUGUGGCUUGUGUCTT against Ly6d	inactive: 0.0724
CCUAUAUGGUACCACACUCTT against Olfr31	inactive: -1.56
GCCCUUGAAGAUUUGAGGUTT against Cops8	inactive: 0.00555
GGACACACAGUGAUCAUAUTT against Fhl1	inactive: -0.79
CGAUGACUAUUUUUCUUGATT against Sgtb	inactive: -0.12
GCACUAAAGAAUCUUUACATT against Tmtc1	inactive: 1.19
GGUCCUGAAAAUCGCUCAGTT against Ctrb1	inactive: -0.649
GCAUUCCUUUCCAAAAGGATT against Rpl24	inactive: -0.146
GGAAACAAAUUGACUGUUATT against Trim61	inactive: -0.26
GGGAUGAGUUCUUGUAAAUTT against Unc50	inactive: -1.32
GGAAAUUACAGAGACAAUUTT against Rbm3	inactive: -0.262
GGAAUGAAUUCAGAGCAUGTT against Map6	inactive: 0.135
CCAGGGACAAGAUUUAUCUTT against Pcdhgb4	inactive: -0.445
GGUGUUUGUGGAAGAGGAATT against Stx19	inactive: 0.0956
CCUGCUAUACAUUGAACCCTT against Lhcgr	active: 2.52
CCCUGCUUUCGGAAUUACATT against C030016D13Rik	inactive: 0.435
GGCUGUCAUCUGGACAGAUTT against Slc5a6	inactive: 0.389
GGAAAGAAACUAAGGAAAATT against Arhgap15	inactive: 0.628
GGAAGUGAGUUUUUCAGCUTT against Bcl6b	inactive: -0.473
GCUAAUUUGACAAAGACGGTT against Bfsp2	inactive: 1.8
GCUUUAUAAUCGGCUCUCCTT against Zdhhc6	inactive: 0.25

Exported comma-delimited: entries from further up.
Sequence,z-score
GGACACACAGUGAUCAUAUTT against Fhl1,inactive: -0.79
CGAUGACUAUUUUUCUUGATT against Sgtb,inactive: -0.12

More entries follow:

Sequence	z-score
GGAUCUUCGGGACACCUUUTT against Mylpf	inactive: 1.08
GGAUAUUCUGUUUUAUGUCTT against Rnf214	inactive: -0.595
CCGUGUCUUAGGUGAUCACTT against H2-DMb1	inactive: 0.391
GGUUCCGAUUCUGUGGCAGTT against Chrm5	inactive: -1.03
CCCAGGAGUCCGACUUUACTT against Kirrel2	inactive: -0.138
GGCAACAUUGCUGUCGUUCTT against Tmem144	inactive: -1.98
CGUGGACCUAUCCCACAAUTT against Tsku	inactive: 0.405
CAUCUGUACUACAAACUAATT against Wfdc21	inactive: 1.23
GGCCCUCACUCGUAUAUUUTT against Rhot1	inactive: 0.316
CGAAAAAUCAGAUUCCUCCTT against Coil	inactive: 0.873
GGCAUGAUAGUGUAAUAACTT against Piga	inactive: -0.488
GGGUGAAAAGGUUUCUGUCTT against Lactb	inactive: 0.892
GGGUGAAUUCUGUCUAUGUTT against Far1	inactive: 0.0586
GUACAAGCCACUGGAUCUGTT against Smad6	active: 5.56
GGAAUGUUGGAAUCAAUUGTT against Gcm1	active: 2.83
CCAUCAAACUAAGACAAUCTT against Csnka2ip	inactive: -0.48
GGUCAAAGACUCUUCUGAUTT against Rrp15	inactive: -1.19
GGACUGGCUCUGAAAAAAATT against Rpf1	inactive: 1.41
GGAUAAGCUUAUCAGCGUGTT against Stim1	inactive: -0.914
GGAAAGUUCAGAGGAGAGATT against Batf	inactive: 0.285
GGACCUAUACCUGAAGCCUTT against Eef2	inactive: -1.54
GGCCAAUAUGUGCUGGUAUTT against Ihh	inactive: 0.186

Sequence	z-score
GCUAAGACUCUUGAAUCAGTT against Zfp280d	active: 3.72
CCUGCUAAAGGAAUGUCACTT against Cmc2	inactive: -0.493
GCUACGGACCAUGUUCAAGTT against Nxpe4	active: 2.93
GAUUUUCCUGCUCACAAUGTT against Olfr1269	inactive: 1.03
CCAUGAAUACCGAUGAGGATT against Kcnk9	inactive: -0.186
GCUCUUAACAUUUAUGCUATT against Dph6	inactive: -0.958
GGUCAUCGGGUAAUUAAUCTT against Rad52	inactive: -0.618
CCACGAUUGCCAAACGUGATT against Dido1	inactive: -0.199
GGGUUCACCUUGACAUCCATT against Tmed9	inactive: -1.66
CGCGCUGCUCAAAAACUAUTT against Gh	inactive: -0.0699
GGGUUUGGUCUCAUAUAAATT against Samd7	inactive: -0.618
GCAAUACCUCAGAAAAAGUTT against Tmem165	active: -4.14
GCACCAUACCUACCACAUATT against Ppp4r3a	inactive: 0.533
GGAACUGGACAUCCAAACUTT against B3galt2	inactive: -1.17
GGUCACAUGGAGCUUUAUGTT against Il4ra	inactive: -1.44
UGGAUACUCUAUCUCAAGCTT against Serpinb9g	inactive: -0.479
GGUCAUGUUUCUCUCCCAATT against Veph1	active: -2.11
GGAACUGGCAAGACAACCATT against Rfc2	inactive: -1.05
GGCAUCUAUACCAGUAAUATT against Mllt6	inactive: -0.562
CGAAUUCAAAAAGCUAGAGTT against Gsto1	inactive: 0.0531
GGCGUGUCUUGAUAGAAAUTT against Tesmin	inactive: 0.652
GCAUGCAGCCUAUGGAUGCTT against Slc22a15	inactive: 0.817

Sequence	z-score
GCAAAAAUGGUUCUCCAUATT against Plxnc1	inactive: 0.0474
GGAAUUUGUAUGGUCUCUGTT against Cntln	inactive: -0.0324
GGGUUGAUUUGGUGUUUUATT against Usp46	inactive: 0.673
GCAAGUUGAGAACAUCAAGTT against Diaph1	inactive: 0.955
CGCGUUCGGUUAUGUAAAUTT against Wnt1	inactive: -0.134
CCCAGGCCACUGAUCUAAGTT against Chrm5	inactive: 0.775
CCUGUAAAGUGUGAUAUUATT against Acot12	inactive: 0.508
GGUGAACGCAUCCGCUAGUTT against Fscn1	inactive: 0.459
GGCAAGGAUAAGACAGUAGTT against Hs3st3b1	inactive: -0.354
GGGCUAAGUGUUGAAUUUATT against Csnk1e	inactive: 0.268
GGGCCAUUGUCAAGGUGAUTT against Olfr632	inactive: -0.408
CCCAACAAAAUGCGCGAUUTT against Rasa2	inactive: -0.226
GGUUUGGCUUAGCUCAUCATT against Mettl24	active: -2.72
GGUUCCUGGGAACCUAAGUTT against Med25	active: 2.02
GGGACAUGCCUGAAAAAUGTT against Nxnl1	inactive: -0.641
GGCCUUCACUGGUUAAAAUTT against Ankrd6	inactive: 0.0966
GGUACAUCGCCAUUUGCCATT against Trhr2	inactive: -0.617
GGAGAAGAAGUUCUUGCUGTT against Cnnm2	inactive: 0.105
GGGCUCCACAUGUUUGCAUTT against Ehmt1	inactive: 0.392
GGUUUUAAAGGAGACCCAGTT against C1qa	inactive: 0.646
GGGCUUAGCUCACCUUCAUTT against Nrk	inactive: -1.61
GGACGAGAAAGCAAAGCAGTT against Mllt10	inactive: -0.211

2 neighbouring entries out of the list so far, for reference:
Sequence	z-score
GGCCUUCACUGGUUAAAAUTT against Ankrd6	inactive: 0.0966
GGUACAUCGCCAUUUGCCATT against Trhr2	inactive: -0.617

(cont.)

Sequence	z-score
GGCUAAUGGACAAAAAAUUTT against Pacrgl	inactive: 0.28
GCACUAGUUCUCAAUUUAATT against Antxr1	inactive: -1.33
GGAUGAGUUCUUCUUCGGCTT against Desi1	inactive: 0.974
GCUUGGACUGGCUGAAGAATT against Ndufa3	inactive: 0.728
GGACUAGCCCUCUUUUAUUTT against Cd163l1	inactive: -0.0583
GCUAUUGAAGUCUCUUCCGTT against Slc14a1	inactive: 0.515
GGAUCAUGGUCAUCACUGUTT against Slc35e1	inactive: -1.5
GCUCGUCUAUGCUAUUUCUTT against Fat1	inactive: -0.835
GGUCUUAGAUAUUUUAGGCTT against Nampt	inactive: -0.406
GGCAGUGACUCUUCAGAAGTT against Ibsp	inactive: 0.87
GGCAUUAGCAUCUACCCAGTT against Syt11	inactive: -1.23
GCAAUACUAUUCAGUCCAUTT against Gnai3	active: -2.45
GGCGGAGAACCAUUGAGGATT against Phf23	inactive: 0.917
GGAACCUGAAAAUGUAUGUTT against Cxcl10	inactive: 0.988
GGGCUACGACAGAAUCAUCTT against Nxpe4	inactive: -1.02
GCGUACGUUCUCCUAACAUTT against Hbs1l	inactive: -1.9
GGAUCCUAGGAUUCUUGGUTT against Slfn5	inactive: -1.98
GGCACUCAGAAAUAUUCAGTT against Nap1l3	active: 3.84
CCUACUGAAACAAUCACACTT against Il20ra	inactive: -0.362

Shown with each value named: part of the list above
GGUACAUCGCCAUUUGCCATT against Trhr2
  z-score: inactive: -0.617
GGAGAAGAAGUUCUUGCUGTT against Cnnm2
  z-score: inactive: 0.105
GGGCUCCACAUGUUUGCAUTT against Ehmt1
  z-score: inactive: 0.392
GGUUUUAAAGGAGACCCAGTT against C1qa
  z-score: inactive: 0.646
